# Experimental data: PubChem BioAssay AID1508597 (Cure First, 2020)
# Aim: 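Genes whose silencing sensitises or protects ovarian cancer cells against rucaparib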 (primary screen)
# Cell system: human ovarian carcinoma lines grown from tumours: OCI-P5x (papillary serous) and OCI-C5x (clear cell)
# Reagent: siRNA pool against human genes, 1.25 pmol siRNA per well
# Timing: 72 h or 96 h, depending on the cell culture
# Challenge: rucaparib 20 µM (about IC30) or vehicle, present until read-out
# Rucaparib or vehicle: Rucaparib
# Cell line: OCI-P5x (serous)
# Measured: 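Luminescent ATP-based viability assay read 72 or 96 h after transfection, depending on culture, given as normalised percent viability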
# Direction: viability, normalised: higher = more viable cells remaining
# Active means: 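Active when normalised viability falls below 80 percent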
# Meaning of the calls: active = viability under 80%; inactive = viability 80% or more
# Shown is a random part of the about 2,100 reagents, in one setting of the screen. 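Calls flag viability under 80% in either arm, not effects specific to rucaparib; the reference for percent is not stated.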 Some reagents were tested in more than one well and are listed for each. No sequences are given here. Not given: the 100% reference.
gene knocked down,technical replicate,"viability, normalised (%)",Outcome
DCLRE1A (DNA cross-link repair 1A),1,63.8,active
DCLRE1A (DNA cross-link repair 1A),2,65.9,active
DCLRE1A (DNA cross-link repair 1A),3,59.6,active
HMGN2 (high mobility group nucleosomal binding domain 2),1,61,active
HMGN2 (high mobility group nucleosomal binding domain 2),2,53,active
HMGN2 (high mobility group nucleosomal binding domain 2),3,68.3,active
SNRNP200 (small nuclear ribonucleoprotein U5 subunit 200),1,51.5,active
SNRNP200 (small nuclear ribonucleoprotein U5 subunit 200),1,57.1,active
SNRNP200 (small nuclear ribonucleoprotein U5 subunit 200),2,52.3,active
SNRNP200 (small nuclear ribonucleoprotein U5 subunit 200),2,51.5,active
SNRNP200 (small nuclear ribonucleoprotein U5 subunit 200),3,48.9,active
SNRNP200 (small nuclear ribonucleoprotein U5 subunit 200),3,55.3,active
PLCD1 (phospholipase C delta 1),1,55,active
PLCD1 (phospholipase C delta 1),2,53.1,active
PLCD1 (phospholipase C delta 1),3,56.7,active
HK1 (hexokinase 1),1,96.4,inactive
HK1 (hexokinase 1),2,84.2,inactive
HK1 (hexokinase 1),3,82.3,inactive
GAK (cyclin G associated kinase),1,55.8,active
GAK (cyclin G associated kinase),2,78.4,active
GAK (cyclin G associated kinase),3,56.5,active
OGA (O-GlcNAcase),1,47.4,active
OGA (O-GlcNAcase),2,33.1,active
OGA (O-GlcNAcase),3,46.5,active
SMNDC1 (survival motor neuron domain containing 1),1,61.9,active
SMNDC1 (survival motor neuron domain containing 1),2,63.8,active
SMNDC1 (survival motor neuron domain containing 1),3,55.1,active
RPL11 (ribosomal protein L11),1,57.9,active
RPL11 (ribosomal protein L11),2,65.4,active
RPL11 (ribosomal protein L11),3,60.5,active
MED19 (mediator complex subunit 19),1,53.6,active
MED19 (mediator complex subunit 19),2,57,active
MED19 (mediator complex subunit 19),3,51.2,active
FOXP3 (forkhead box P3),1,95.3,inactive
FOXP3 (forkhead box P3),2,101,inactive
FOXP3 (forkhead box P3),3,104,inactive
CSNK1D (casein kinase 1 delta),1,128,inactive
CSNK1D (casein kinase 1 delta),1,49.7,active
CSNK1D (casein kinase 1 delta),2,49,active
CSNK1D (casein kinase 1 delta),2,136,inactive
CSNK1D (casein kinase 1 delta),3,42.8,active
CSNK1D (casein kinase 1 delta),3,137,inactive
SQLE (squalene epoxidase),1,75.2,active
SQLE (squalene epoxidase),2,75.8,active
SQLE (squalene epoxidase),3,90.4,inactive
ORC1 (origin recognition complex subunit 1),1,46.1,active
ORC1 (origin recognition complex subunit 1),2,63.7,active
ORC1 (origin recognition complex subunit 1),3,52.4,active
GLYR1 (glyoxylate reductase 1 homolog),1,93.9,inactive
GLYR1 (glyoxylate reductase 1 homolog),2,87.3,inactive
GLYR1 (glyoxylate reductase 1 homolog),3,89.6,inactive
TBXT (T-box transcription factor T),1,52.4,active
TBXT (T-box transcription factor T),2,48.6,active
TBXT (T-box transcription factor T),3,69.8,active
MLH3 (mutL homolog 3),1,79.2,active
MLH3 (mutL homolog 3),2,90.2,inactive
MLH3 (mutL homolog 3),3,60.2,active

5 entries from above, sorted by “viability, normalised (%)”, lowest first.
gene knocked down,technical replicate,"viability, normalised (%)",Outcome
SMNDC1 (survival motor neuron domain containing 1),3,55.1,active
RPL11 (ribosomal protein L11),1,57.9,active
RPL11 (ribosomal protein L11),3,60.5,active
SMNDC1 (survival motor neuron domain containing 1),2,63.8,active
RPL11 (ribosomal protein L11),2,65.4,active
